Measured values taken from article PMC9271913.
Results are given in words; binding and its absence hold for the method and conditions named. Binding seen in cells or lysates may run through a third protein. These calls come from enrichment with a bait or labelling near it, and not all partners need be listed.

molecular target: T1, Retention in endoplasmic reticulum 1 (Rer1), mouse (mouse (endogenous in brain)) (UniProt Q9CQU3); assay: affinity purification with mass spectrometry; anti-RER1 immunoprecipitation of hippocampus lysates (gentle RIPA lysis buffer) of PTZ-induced Nedd4-2+/- and wild-type mice, LC-MS/MS; IgG-precipitated proteins subtracted; proteins present in all four replicates of a group defined as positive
T1 sequence: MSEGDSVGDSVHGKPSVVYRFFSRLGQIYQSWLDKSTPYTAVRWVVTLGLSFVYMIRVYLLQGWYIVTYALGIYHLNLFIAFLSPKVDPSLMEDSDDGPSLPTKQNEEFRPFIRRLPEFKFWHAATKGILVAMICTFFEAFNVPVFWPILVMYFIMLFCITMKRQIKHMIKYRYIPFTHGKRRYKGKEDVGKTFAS

Binder | binding
KCC2a-S25 variant 1 (protein, UniProt Q91V14-1 1-1138) MSRRFTVTSLPPAASAASADPESRRHSVADPRRLPREDVKGDGNPKESSPFINSTDTEKGREYDGRNMALFEEEMDTSPMVSSLLSGLANYTNLPQGSREHEEAENNEGGKKKPVQAPRMGTFMGVYLPCLQNIFGVILFLRLTWVVGIAGIMESFCMVFICCSCTMLTAISMSAIATNGVVPAGGSYYMISRSLGPEFGGAVGLCFYLGTTFAGAMYILGTIEILLAYLFPAMAIFKAEDASGEAAAMLNNMRVYGTCVLTCMATVVFVGVKYVNKFALVFLGCVILSILAIYAGVIKSAFDPPNFPICLLGNRTLSRHGFDVCAKLAWEGNETVTTRLWGLFCSSRLLNATCDEYFTRNNVTEIQGIPGAASGLIKENLWSSYLTKGVIVERRGMPSVGLADGTPVDMDHPYVFSDMTSYFTLLVGIYFPSVTGIMAGSNRSGDLRDAQKSIPTGTILAIATTSAVYISSVVLFGACIEGVVLRDKFGEAVNGNLVVGTLAWPSPWVIVIGSFFSTCGAGLQSLTGAPRLLQAISRDGIVPFLQVFGHGKANGEPTWALLLTACICEIGILIASLDEVAPILSMFFLMCYMFVNLACAVQTLLRTPNWRPRFRYYHWTLSFLGMSLCLALMFICSWYYALVAMLIAGLIYKYIEYRGAEKEWGDGIRGLSLSAARYALLRLEEGPPHTKNWRPQLLVLVRVDQDQNVVHPQLLSLTSQLKAGKGLTIVGSVLEGTFLDNHPQAQRAEESIRRLMEAEKVKGFCQVVISSNLRDGVSHLIQSGGLGGLQHNTVLVGWPRNWRQKEDHQTWRNFIELVRETTAGHLALLVTKNVSMFPGNPERFSEGSIDVWWIVHDGGMLMLLPFLLRHHKVWRKCKMRIFTVAQMDDNSIQMKKDLTTFLYHLRITAEVEVVEMHESDISAYTYEKTLVMEQRSQILKQMHLTKNEREREIQSITDESRGSIRRKNPANPRLRLNVPEETACDNEEKPEEEVQLIHDQSAPSCPSSSPSPGEEPEGERETDPEVHLTWTKDKSVAEKNKGPSPVSSEGIKDFFSMKPEWENLNQSNVRRMHTAVRLNEVIVNKSRDAKLVLLNMPGPPRNRNGDENYMEFLEVLTEQLDRVMLVRGGGREVITIYS | binds
Synaptosomal-associated protein 47 (protein, UniProt Q8R570 1-413) MSSDMRVHSWSCSYYLDLEKQWVSGKLTLTPHSLKFIVEKTEEVLVGLPLSSIIEIRKESSLFIFGAITVLEKGQTKHWFSSLQPSRNVVFNVIEHFWRELLLSQPGTAANIPSHVTRGQELIGLMANSQKRMEDTAKDLQQQSEQLDSVLKGLEKMESDLDVADRLLTELETPSWWPFGSKFWKMPAEENLKEGVSSTCEPFGKEGVVITVPAIISERAESHSKLGKLTVLVSALEIYDSCSLLLHRFEKEDVDDIKVHSPYEVSIRQRFIGKPDVAYQLISAKMPEVIPILEVQFSSKIELLEDALVLRNKVFASSAERHAASRPKGCTPHRELPTGGQEGEQLQLQKNLPLFSEGEAQELTQILSKMKGLALDTEAELERQDAALDGITVAVDRATLNVDKQNRRMRKLM | binds
Succinate-CoA ligase subunit beta (Fragment) (protein, UniProt Q9Z2I9 54-463) SLHEYLSMELLQEAGVSVPKGFVAKSSDEAYAIAKKLGSKDVVIKAQVLAGGRGKGTFTSGLKGGVKIVFSPEEAKAVSSQMIGQKLITKQTGEKGRICNQVLVCERKYPRREYYFAITMERSFQGPVLIGSAQGGVNIEDVAAENPEAIVKEPIDIVEGIKKEQAVTLAQKMGFPSNIVDSAAENMIKLYNLFLKYDATMVEINPMVEDSDGKVLCMDAKINFDSNSAYRQKKIFDLQDWSQEDERDKEAANADINYIGLDGSIGCLVNGAGLAMATMDIIKLHGGTPANFLDVGGGATVQQVTEAFKLITSDKKVQAILVNIFGGIMRCDVIAQGIVMAVKDLEIRIPVVVRLQGTRVDDAKALIADSGLKILACDDLDEAAKMVVKLSEIVTLAKEAHVDVKFQLPI | binds
Tripartite motif-containing protein 2 isoform X2 (protein, UniProt Q9ESN6 1-744) MASEGASIPSPVVRQIDKQFLICSICLERYKNPKVLPCLHTFCERCLQNYIPAHSLTLSCPVCRQTSILPEKGVAALQNNFFITNLMDVLQRTPGSNGEDSSILETVTAVAAGKPLSCPNHDGNVMEFYCQSCETAMCRECTEGEHAEHPTVPLKDVVEQHKASLQVQLDAVNKRLPEIDSALQFISEIIHQLTNQKASIVDDIHSTFDELQKTLNVRKSVLLMELEVNYGLKHKVLQSQLDTLLQGQESIKSCSNFTAQALNHGTETEVLLVKKQMSEKLNELADQDFPLHPRENDQLDFIVETEGLKKSIHNLGTILTTNAVASETVATGEGLRQTIIGQPMSVTITTKDKDGELCKTGNAYLTAELSTPDGSVADGEILDNKNGTYEFLYTVQKEGDFTLSLRLYDQHIRGSPFKLKVIRSADVSPTTEGVKRRVKSPGSGHVKQKAVKRPASMYSTGKRKENPIEDDLIFRVGTKGRNKGEFTNLQGVAASTSGKILIADSNNQCVQIFSNDGQFKSRFGIRGRSPGQLQRPTGVAVHPSGDIIIADYDNKWVSIFSNDGKFKTKIGSGKLMGPKGVSVDRNGHIIVVDNKACCVFIFQPNGKIVTRFGSRGNGDRQFAGPHFAAVNSNNEIIITDFHNHSVKVFNQEGEFMLKFGSNGEGNGQFNAPTGVAVDSNGNIIVADWGNSRIQVFDGSGSFLSYINTSADPLYGPQGLALTSDGHVVVADSGNHCFKVYRYLQ | binds
Cytochrome b-c1 complex subunit 2, mitochondrial (protein, UniProt Q9DB77 15-453) SLKVAPKVKTSAAPGGVPLQPQDLEFTKLPNGLVIASLENYAPLSRIGLFVKAGSRYEDSNNLGTSHLLRLASSLTTKGASSFKITRGIEAVGGKLSVTATRENMAYTVEGIRSDIEILMEFLLNVTTAPEFRRWEVAALRSQLKIDKAVAFQNSQTRIIENLHDVAYKNALANPLYCPDYRMGKITSEELHYFVQNHFTSARMALVGLGVSHSVLKQVAEQFLNMRGGLGLAGAKAKYRGGEIREQNGDNLVHAAIVAESAAIGNAEANAFSVLQHLLGAGPHIKRGNNTTSLLSQSVAKGSHQPFDVSAFNASYSDSGLFGIYTISQAAAAGEVINAAYNQVKAVAQGNLSSADVQAAKNKLKAGYLMSVETSEGFLSEIGSQALAAGSYMPPSTVLQQIDSVADADVVKAAKKFVSGKKSMAASGNLGHTPFLDEL | binds
Vacuolar protein sorting-associated protein 51 homolog (protein, UniProt Q3UVL4 1-782) MAAAAAVGPGLGSGPGDSPEGPEADAPERRRKAHGMLKLYYGLSEGEVAGHPAGPDPLDPTDLNGAHFDPEVYLDKLRRECPLAQLMDSETDMVRQIRALDSDMQTLVYENYNKFISATDTIRKMKNDFRKMEDEMDRLATNMAVITNFSARISATLQDRHERITKLAGVHALLRKLQFLFELPSRLTKCVELGAYGQAVRYQGRARAVLQQYQHLPSFRAIQDDCQVITARLAQQLRQRFREGCSGAPEQAECVELLLALGEPAEELCEEFLAHARGRLEEELSSLEAELGPSPPAPDVLEFTDRGGNGFVGGLCQVAAAYQELFAAQGPAGAEKLAAFAQELGGRYFALVERRLAQEQGGSDNSLLVRALDRFHRRLRAPGALLAAAGLSESATEIVERVARERLSHHLQGLKAAFLSSLTDVRQALAAPRLAGKEGPSLAELLANVASSILSHIKTSLASVHLFTAKEVSFSNKPYFRGEFCSQGVREGLIVGFIRSMCQTAQSFCDSPGEKGGATPPALLLLLSRLCLDYETATISYILTLTDEQFLVQDQSPVTPVSTLCAEARETARRLLTHYVKVQGLVISQMLRKSVETRDWLSTLEPRNVRAVMKRVVEDTTAIDVQVGLLYEEGVRKAQSSDSSKRTFSVYSSSRQQGRYAPSYTPSAPMDTNLLSNIQKLFSERIDVFSPVEFNKVSVLTGIIKISLKTLLECVRLRTFGRFGLQQVQVDCHFLQLYLWRFVADEELVHLLLDEVVASAALRCPDPVPMEPSVVEVICERG | binds
WD repeat-containing protein 37 isoform X2 (protein, UniProt Q8CBE3 1-496) MPTESGSCSTARQAKQKRKSHSLSIRRTNSSEQERTGLPREMLEGQDSKLPSSVRSTLLELFGQIEREFENLYIENLELRREIDTLNERLAGEGQAIDGAELSKGQLKTKASHSTSQLSQKLKTTYKASTSKIVSSFKTTTSRAICQLVKEYIGHRDGIWDVSVTRTQPIVLGTASADHTALLWSIETGKCLVKYAGHVGSVNSIKFHPSEQLALTASGDQTAHIWRYVVQLPTPQPVADTSQQISGEDEIECSDKDEPDIDGDVSSDCPTVRVPLTSLKSHQGVVIAADWLVGGKQVVTASWDRTANLYDVETSELVHSLTGHDQELTHCCTHPTQRLVVTSSRDTTFRLWDFRDPSIHSVNVFQGHTDTVTSAVFTVGDNVVSGSDDRTVKVWDLKNMRSPIATIRTDSAINRINVCVGQKIIALPHDNRQVRLFDMSGVRLARLPRSSRQGHRRMVCCSAWSEDHPICNLFTCGFDRQAIGWNINIPALLQEK | binds
Rtn3 (protein, UniProt Q9ES97 1-964) MAESSAATQSPSVSSSSSGAEPSALGGGGGSPGACPALGAKSCGSSCADSFVSSSSSQPVSIFSTSQAGLSSLCSDEPPSKSMTSSFLSSSEIHNPDPTTPLGEKSETLGSQFVLAKGKDPLVLLDKKKLDSPQGTNKDRVDAPVSLATGIPCSHPSIPDSFPEQPAFLSKEIGPAEEWVVKDQEPKNPNKVPDGEDRSALDFGQSKAEHICTYSLSPSELPVASVEKDSPESPFEVIIDKATFDREFKDLYKENPNDLGGWAAHGDRESPADLLEMNDKLFPLRNKEAGRYPSSVLLGRQFSHTTAALEEVSRCVNDMHNFTNEILTWDLDPQAKQQANKTSCTTESTGLDRSELRSEIPVINLKTNPQQKMPVCSFNGSTPITKSTGDWTEAFTEGKPVRDYLSSTKEAGGNGVPGSSQLHSELPGSMPEKWVSGSGAATVEVTLPNLRGAWPNSVMGEVTEVDSSGESDDTVIEDITEKPDSLPSAAAKTSEREIKETPSRETVRSEMCENSEQPQAQPETPTQKSLEGEVASQVPNTLNEVTPEKLDMTNNPKVCSAAPPSVLNETGFSLTVPASAKLESLLGKYVEDTDGSSPEDLMAVLTGAEEKGIVDKEEGDVLEAVLEKIADFKNTLPVELLHESELSGSETKNIKSKYSEDSRETTGGAPTMSPDLEQEQLTIRAIKELGERQAEKVQDEGISSGGKLKQTFAPQSGPQSSSDILEHTDVKTGSDLGIPKNPTIIKNTRIDSISSLTKTEMVNKNVLARLLSDFPVHDLIFWRDVKKTGFVFGTTLIMLLSLAAFSVISVVSYLILALLSVTISFRVYKSVIQAVQKSEEGHPFKAYLDVDITLSSEAFHNYMNAAMVHVNKALKLIIRLFLVEDLVDSLKLAVFMWLMTYVGAVFNGITLLILAELLVFSVPIVYEKYKTQIDHYVGIARDQTKSIVEKIQAKLPGIAKKKAE | binds
